Drawing on paper PMC7819943, “Rice protein-binding microarrays: a tool to detect cis-acting elements near promoter regions in rice”, this text covers binding signal for 42 sequences.

Sequences of proteins named here, by UniProt entry; tags and fusion partners are left off.
UniProt Q0JBA9, entry or part of it: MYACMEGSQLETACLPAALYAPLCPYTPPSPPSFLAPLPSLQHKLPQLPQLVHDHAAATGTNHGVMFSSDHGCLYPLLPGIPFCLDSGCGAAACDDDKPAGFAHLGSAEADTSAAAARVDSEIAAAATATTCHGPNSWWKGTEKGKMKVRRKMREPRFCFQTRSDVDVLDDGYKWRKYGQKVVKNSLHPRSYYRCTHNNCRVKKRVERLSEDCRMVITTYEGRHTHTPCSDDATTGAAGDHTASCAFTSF

This is one part of the list.

The target of this assay is OsWRKY34 (Oryza sativa, UniProt Q0JBA9 1-250). In words: protein-binding microarray (RPBM); PBS, 2% BSA, 51.3 ng/ul salmon testes DNA, 50 uM zinc acetate, 200 nM TF, 25 C, 1 h; high values mean tight binding. The conditions noted are these: protein: recombinant; tags: N-terminal polyhistidine and DsRed monomer fusion (pET32a); label: CyDye5-dUTP incorporated in the synthesized complementary strand; 3' TTTTT single-stranded linker to array surface; dsDNA, one strand shown. A digest of the protocol:
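The binding signal for each feature is its fluorescence intensity in arbitrary units. An Axon 4000B scanner was used to read a custom Agilent array that had been made double-stranded with Cy5-dUTP primer extension, blocked with 2% BSA, incubated at 25 °C for 1 h with 200 nM protein in PBS, 2% BSA, salmon testes DNA and 50 µM zinc acetate, and washed. The protein was an N-terminal polyhistidine–DsRed transcription factor fusion from E. coli BL21-CodonPlus, purified on Ni–NTA.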
For the sequence “TTAATCCATGTCATGTCCCTTTGCTTGCTTCCTTTGCTTTCGGAGTCACCTAGTGCAG”, the binding signal was 8450 fluorescence intensity (a.u.).

“GGGTTTTGTGGCTGCATACCCACTATGGGTTGGAGTGTCTCGGAGTCACCTAGTGCAG”: the binding signal was 8090 fluorescence intensity (a.u.).

Take “CCACTGTCCACATGCCCACATCATCTTCAACTGGGCCTACCGGAGTCACCTAGTGCAG”: the binding signal is 8480 fluorescence intensity (a.u.).

Regarding “GTCTTCTTCTTGCTCCTCTGGTAAGGTGTACTACCTCACACGGAGTCACCTAGTGCAG”, the binding signal is 8080 fluorescence intensity (a.u.).

In the case of “GGAAAGTTATACTCTGTTATGGTACCCTTGTATACGCTACCGGAGTCACCTAGTGCAG”, the binding signal was 8820 fluorescence intensity (a.u.).

In the case of “GGGGAGAATGAATAGTTAGGATTTAATGATGTTTTTTGGTCGGAGTCACCTAGTGCAG”, the binding signal was 10500 fluorescence intensity (a.u.).

Consider “CGGCAAATTTCACATATTTTGCAGTGTCCTCGGGCAGTTTCGGAGTCACCTAGTGCAG”, for which the binding signal was 8230 fluorescence intensity (a.u.).

As for “GAATTTCAGACATCCATTTTCTAATCCAACGGTAGTTTTTCGGAGTCACCTAGTGCAG”, the binding signal was 8760 fluorescence intensity (a.u.).

Turning to “GCTTAGGTTTAAAGCCTCACTCATTCTAATTATTTGATATCGGAGTCACCTAGTGCAG”, the binding signal was 8070 fluorescence intensity (a.u.).

As for “CTCATCGCCTCGTCTCACGTTTGATCCATCACACTCACACCGGAGTCACCTAGTGCAG”, the binding signal was 8560 fluorescence intensity (a.u.).

Take “GCTATCTTCGATCTGCTGTTCAACAATTCCGCTTCCGCCTCGGAGTCACCTAGTGCAG”: the binding signal is 8830 fluorescence intensity (a.u.).

In the case of “ACCGGTCAAGACTGCAGTTTGTAGTTGAAGAAGAATTCTACGGAGTCACCTAGTGCAG”, the binding signal is 12700 fluorescence intensity (a.u.).

For the sequence “ACACGGATGCAACCCAAACCCAACACGGCAAGTCGCGGCCCGGAGTCACCTAGTGCAG”, the binding signal is 8300 fluorescence intensity (a.u.).

For the sequence “CCGACCGACCGACCGACCGCCGCGCGCGTACTGGCTACACCGGAGTCACCTAGTGCAG”, the binding signal is 8500 fluorescence intensity (a.u.).

As to “CATTACCACAATTTGCCTCGCATTGACACAACTCAAGTTACGGAGTCACCTAGTGCAG”, the binding signal was 8530 fluorescence intensity (a.u.).

Take “GGCGCTGCTTCGTGATTGCTTGTCTCGTGTCTGAATCACTCGGAGTCACCTAGTGCAG”: the binding signal is 9720 fluorescence intensity (a.u.).

“CTGTTATTGTACCTGCTTTTACTACGTTCCCAATCACGAGCGGAGTCACCTAGTGCAG”: the binding signal is 12300 fluorescence intensity (a.u.).

Regarding “GAGCCTTGTACCTGGTGCCATGATCTTGAACGCTTAGATGCGGAGTCACCTAGTGCAG”, the binding signal is 8300 fluorescence intensity (a.u.).

Turning to “CATATATTTTGCACAAATCCAGCCCAACTTCTACGGGCCGCGGAGTCACCTAGTGCAG”, the binding signal was 8750 fluorescence intensity (a.u.).

“TATTATTATGATGGGTTTGTATATTAAAATTGTCAGTTTGCGGAGTCACCTAGTGCAG”: the binding signal is 8110 fluorescence intensity (a.u.).

In the case of “GCCACCCCGGCCACCTCAGCGCCCCATCCACGTCTCCGACCGGAGTCACCTAGTGCAG”, the binding signal is 8650 fluorescence intensity (a.u.).

As to “AATTGCTCACGATAACATGGATCTGTCCTCGTTTTTCTTTCGGAGTCACCTAGTGCAG”, the binding signal was 11200 fluorescence intensity (a.u.).

As to “TTGGTTGGATGGATGACGTTGCTGTGGCCGGCTGTTTCCACGGAGTCACCTAGTGCAG”, the binding signal was 8280 fluorescence intensity (a.u.).

Regarding “GAATTTTTTTTTCGTTTTTTTCAATTCGTTATTCTTTTCTCGGAGTCACCTAGTGCAG”, the binding signal is 12300 fluorescence intensity (a.u.).

For the sequence “TGACCCATCTCATATCTTCATCTTCCTTCTCCTTCTCTACCGGAGTCACCTAGTGCAG”, the binding signal is 10500 fluorescence intensity (a.u.).

Turning to “GACACAACCACATAGGCTGACATCTTGTATATTGGGACCTCGGAGTCACCTAGTGCAG”, the binding signal is 9550 fluorescence intensity (a.u.).

Turning to “TGGCTTCCTACATCTACTCTATATTTATGCTCCTACAGAACGGAGTCACCTAGTGCAG”, the binding signal was 9760 fluorescence intensity (a.u.).

Turning to “TCCGATCCGTTTGTTGTTGTTGCCGTGGCGTGCCTTGTGACGGAGTCACCTAGTGCAG”, the binding signal was 9520 fluorescence intensity (a.u.).

Consider “GGCCTCACGATGACACCTCGCTGCACCGCGCACCACAAACCGGAGTCACCTAGTGCAG”, for which the binding signal is 9380 fluorescence intensity (a.u.).

In the case of “AAATAGACTCACAGAACAGCAGCTTCCATCACACTAACACCGGAGTCACCTAGTGCAG”, the binding signal was 9340 fluorescence intensity (a.u.).

For the sequence “CGCCCTCGCCTGGATCTACCCGGCCCGCCGTCCCATTCACCGGAGTCACCTAGTGCAG”, the binding signal was 8460 fluorescence intensity (a.u.).

Consider “ACTAATTATAGTATAATTTTTTATTTCTGTTACAACTTATCGGAGTCACCTAGTGCAG”, for which the binding signal is 8860 fluorescence intensity (a.u.).

For “CGCGTTTCAGCTCCTTTTTCGGCTTCTTTTTTGGCGATTTCGGAGTCACCTAGTGCAG”, the binding signal is 11400 fluorescence intensity (a.u.).

For “GTTCTACCAGCAGGTAATTTCACACTTCTTAATTGCCCTCCGGAGTCACCTAGTGCAG”, the binding signal is 10400 fluorescence intensity (a.u.).

Turning to “TCTATATAGTTTTTCTGTTTTCGCATTTTAGTAAAATATTCGGAGTCACCTAGTGCAG”, the binding signal is 8100 fluorescence intensity (a.u.).

As for “AGGGCTATATATATATATATACGTACTAACTTTTTCTTACCGGAGTCACCTAGTGCAG”, the binding signal was 8450 fluorescence intensity (a.u.).

For “TGCGGTTTGTTTCGTGGTGTGAGATATCTGGGATTTGTTTCGGAGTCACCTAGTGCAG”, the binding signal was 9250 fluorescence intensity (a.u.).

For the sequence “TTGCGTCCCTGCTCGTACACGGCGTTGAGCGTCTCCTTCACGGAGTCACCTAGTGCAG”, the binding signal was 14600 fluorescence intensity (a.u.).

“TCACCTGCCAGCTGTCGCCGTCGTCTCGCCTCACCTGGGTCGGAGTCACCTAGTGCAG”: the binding signal is 9100 fluorescence intensity (a.u.).

With “CCAATCGTTTGCTTCTTCTTCTTCCTCTTCTCGCTGTTCTCGGAGTCACCTAGTGCAG”, the binding signal is 8070 fluorescence intensity (a.u.).

Regarding “AAACCCCATTTTCTTTATATACTCCGGATCTCTGCGCCACCGGAGTCACCTAGTGCAG”, the binding signal is 8440 fluorescence intensity (a.u.).

For the sequence “ATTTTTTGGTATACTAACTGTGGGTATAAATTTAGTTCGTCGGAGTCACCTAGTGCAG”, the binding signal was 8380 fluorescence intensity (a.u.).
